These are yes or no findings as the source states them, for the method shown. Some binding calls cover weakened binding; strength is not graded here.

Amino acid sequences for entries named in this document (tags omitted). A change or cut given only in a name is not applied to a line headed by its entry. Residues count along the entry.
UniProt Q04609: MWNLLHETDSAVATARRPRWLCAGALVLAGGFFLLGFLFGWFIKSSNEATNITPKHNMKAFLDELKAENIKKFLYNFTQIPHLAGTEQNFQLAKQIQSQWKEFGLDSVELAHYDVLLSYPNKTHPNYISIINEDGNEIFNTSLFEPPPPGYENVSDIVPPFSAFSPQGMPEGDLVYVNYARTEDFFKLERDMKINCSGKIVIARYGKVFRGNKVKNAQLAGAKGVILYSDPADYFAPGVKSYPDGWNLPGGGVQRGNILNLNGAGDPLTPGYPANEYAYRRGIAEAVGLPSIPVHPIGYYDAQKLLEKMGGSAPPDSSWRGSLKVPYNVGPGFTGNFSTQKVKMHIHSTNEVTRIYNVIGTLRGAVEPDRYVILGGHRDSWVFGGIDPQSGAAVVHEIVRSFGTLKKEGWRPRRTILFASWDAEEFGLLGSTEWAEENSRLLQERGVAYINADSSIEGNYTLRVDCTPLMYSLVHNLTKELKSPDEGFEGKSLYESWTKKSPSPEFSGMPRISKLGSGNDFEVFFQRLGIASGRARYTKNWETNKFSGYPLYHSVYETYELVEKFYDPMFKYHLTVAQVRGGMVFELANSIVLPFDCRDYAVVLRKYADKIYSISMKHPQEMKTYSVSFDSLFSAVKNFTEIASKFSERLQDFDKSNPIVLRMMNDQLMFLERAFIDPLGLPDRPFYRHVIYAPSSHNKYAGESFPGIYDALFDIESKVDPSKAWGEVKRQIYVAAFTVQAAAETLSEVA
immobilized recombinant human PSMA (BLI of Example 9): residues 44-750 of Q04609

Drawing on patent publication US20250353926A1, this text covers binding for two molecules.

Test [1] has as its target immobilized recombinant human PSMA (BLI of Example 9) (human) (UniProt Q04609). Kind of test: BLI, immobilized recombinant human PSMA.
In test [2] the target is PSMA expressed on target cells (PC3pip cells, high density; 22Rv1 cells, low density) (UniProt Q04609). In words: inferred from T-cell luciferase reporter assay, PC3pip cells.

B1: C32 (bispecific antibody)
chain: QVQLQESGGGSVEAGGSLRLSCARSGWPYSTYSMNWFRQAPGKEREAVAGISSTMSGIIFAESKAGQFTISQDNAKNTVYLQMNNLKPEDTAIYYCAARRYFSLSSSSDDFDYWGQGTQVTVSSGGGGSGGGGSGGGGSGGGGSEVQLVESGGGLVQPGGSLRLSCAASGDIYKSFDMGWYRQAPGKQRDLVAVIGSRGNNRGRTNYADSVKGRFTISRDGTGNTVYLLMNKLRPEDTAIYYCNTAPLVAGRPWGRGTLVTVSSAAAYPYDVPDYGSSPSTPPTPSPSTPPHHHHHH
In the case of B1, the binding result in test [1] is reported as “binds”.

B2: C33 (bispecific antibody)
chain: QVQLQESGGGSVEAGGSLRLSCARSGWPYSTYSMNWFRQAPGKEREAVAGISSTMSGIIFAESKAGQFTISQDNAKNTVYLQMNNLKPEDTAIYYCAARRYFSLSSSSDDFDYWGQGTQVTVSSGGGGSGGGGSGGGGSGGGGSEVQLVESGGGLVQPGGSLRLSCVASGDVHKINFLGWYRQAPGKEREKVAHISIGDQTDYADSAKGRFTISRDESKNMVYLQMNSLKPEDTAVYFCRAFSRIYPYDYWGQGTLVTVSSAAAYPYDVPDYGSSPSTPPTPSPSTPPHHHHHH
With B2, the binding entry in test [1] and in test [2] was “binds” in each case.
